# Experimental data: the supplement of paper PMC6411743
# The chains behind the UniProt entries cited, without tags or fusion partners. Where a name states a change or a piece, a line headed by the entry shows the natural chain unless it says otherwise.
# UniProt Q71RC2, whole entry: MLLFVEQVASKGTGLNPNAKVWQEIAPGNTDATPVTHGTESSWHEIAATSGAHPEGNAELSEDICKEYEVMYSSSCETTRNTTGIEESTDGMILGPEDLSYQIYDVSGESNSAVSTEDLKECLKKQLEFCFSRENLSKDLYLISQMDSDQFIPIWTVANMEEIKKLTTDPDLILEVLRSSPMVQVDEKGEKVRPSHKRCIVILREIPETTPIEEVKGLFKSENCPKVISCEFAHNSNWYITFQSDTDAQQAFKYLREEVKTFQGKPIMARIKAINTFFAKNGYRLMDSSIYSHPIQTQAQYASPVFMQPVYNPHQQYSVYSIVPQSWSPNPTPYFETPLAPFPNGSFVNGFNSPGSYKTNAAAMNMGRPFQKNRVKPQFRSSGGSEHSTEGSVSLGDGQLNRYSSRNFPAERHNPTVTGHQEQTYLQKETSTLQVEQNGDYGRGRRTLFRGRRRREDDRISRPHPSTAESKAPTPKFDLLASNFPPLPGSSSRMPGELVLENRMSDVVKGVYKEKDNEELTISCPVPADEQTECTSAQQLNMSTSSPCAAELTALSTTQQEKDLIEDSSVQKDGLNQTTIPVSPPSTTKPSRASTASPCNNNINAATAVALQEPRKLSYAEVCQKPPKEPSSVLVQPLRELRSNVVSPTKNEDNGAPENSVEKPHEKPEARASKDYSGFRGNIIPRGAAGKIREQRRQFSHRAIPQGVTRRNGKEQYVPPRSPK
# UniProt Q63HQ0: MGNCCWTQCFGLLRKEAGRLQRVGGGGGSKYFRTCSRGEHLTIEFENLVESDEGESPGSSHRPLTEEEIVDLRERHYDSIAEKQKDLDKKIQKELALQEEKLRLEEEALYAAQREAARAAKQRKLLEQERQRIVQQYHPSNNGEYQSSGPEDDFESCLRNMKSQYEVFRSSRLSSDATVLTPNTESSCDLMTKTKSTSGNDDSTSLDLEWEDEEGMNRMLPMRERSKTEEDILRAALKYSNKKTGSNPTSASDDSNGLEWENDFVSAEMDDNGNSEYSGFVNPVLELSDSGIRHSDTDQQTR
# UniProt Q6RI45, whole entry: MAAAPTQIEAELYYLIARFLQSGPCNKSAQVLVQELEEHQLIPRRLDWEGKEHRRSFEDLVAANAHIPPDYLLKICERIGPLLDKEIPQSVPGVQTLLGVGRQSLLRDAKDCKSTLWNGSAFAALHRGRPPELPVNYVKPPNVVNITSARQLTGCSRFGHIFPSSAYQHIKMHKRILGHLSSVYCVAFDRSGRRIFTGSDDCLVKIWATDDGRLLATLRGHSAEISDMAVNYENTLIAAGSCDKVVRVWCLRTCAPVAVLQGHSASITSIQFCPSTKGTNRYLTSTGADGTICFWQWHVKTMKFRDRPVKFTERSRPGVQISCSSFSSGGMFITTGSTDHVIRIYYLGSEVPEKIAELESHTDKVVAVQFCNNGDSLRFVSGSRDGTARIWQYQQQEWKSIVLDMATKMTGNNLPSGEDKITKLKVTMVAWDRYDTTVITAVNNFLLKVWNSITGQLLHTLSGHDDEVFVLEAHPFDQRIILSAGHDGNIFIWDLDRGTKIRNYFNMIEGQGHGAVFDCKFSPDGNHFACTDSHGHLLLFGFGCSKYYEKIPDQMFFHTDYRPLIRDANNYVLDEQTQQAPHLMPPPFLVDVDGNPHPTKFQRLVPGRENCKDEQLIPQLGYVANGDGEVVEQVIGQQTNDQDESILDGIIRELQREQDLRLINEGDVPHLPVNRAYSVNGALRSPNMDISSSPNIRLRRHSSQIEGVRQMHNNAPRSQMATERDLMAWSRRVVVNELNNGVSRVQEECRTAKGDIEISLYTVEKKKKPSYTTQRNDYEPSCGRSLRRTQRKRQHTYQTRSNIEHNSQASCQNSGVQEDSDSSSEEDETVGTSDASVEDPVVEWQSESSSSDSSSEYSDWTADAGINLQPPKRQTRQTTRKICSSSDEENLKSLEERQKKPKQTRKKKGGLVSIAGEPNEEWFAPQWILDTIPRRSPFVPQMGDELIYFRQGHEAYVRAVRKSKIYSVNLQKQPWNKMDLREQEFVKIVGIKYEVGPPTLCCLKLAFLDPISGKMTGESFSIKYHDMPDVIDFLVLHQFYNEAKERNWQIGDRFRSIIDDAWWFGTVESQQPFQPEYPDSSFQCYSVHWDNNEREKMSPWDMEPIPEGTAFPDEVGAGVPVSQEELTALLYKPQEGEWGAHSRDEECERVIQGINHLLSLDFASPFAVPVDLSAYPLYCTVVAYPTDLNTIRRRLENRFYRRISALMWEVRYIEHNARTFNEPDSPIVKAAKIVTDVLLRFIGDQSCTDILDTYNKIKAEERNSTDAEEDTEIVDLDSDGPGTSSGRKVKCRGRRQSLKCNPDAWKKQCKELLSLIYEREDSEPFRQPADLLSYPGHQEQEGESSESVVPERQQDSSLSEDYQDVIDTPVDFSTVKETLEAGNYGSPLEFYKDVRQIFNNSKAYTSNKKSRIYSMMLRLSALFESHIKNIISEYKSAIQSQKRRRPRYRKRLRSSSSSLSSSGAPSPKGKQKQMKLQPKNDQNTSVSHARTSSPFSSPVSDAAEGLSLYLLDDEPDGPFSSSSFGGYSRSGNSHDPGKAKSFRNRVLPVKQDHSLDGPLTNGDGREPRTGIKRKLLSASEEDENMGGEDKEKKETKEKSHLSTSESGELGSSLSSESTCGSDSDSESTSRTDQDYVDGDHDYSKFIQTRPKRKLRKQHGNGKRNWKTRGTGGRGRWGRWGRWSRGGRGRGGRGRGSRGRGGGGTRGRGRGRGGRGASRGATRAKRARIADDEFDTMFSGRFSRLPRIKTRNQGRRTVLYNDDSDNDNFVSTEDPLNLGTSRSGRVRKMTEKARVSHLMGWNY
# UniProt Q6P6B7: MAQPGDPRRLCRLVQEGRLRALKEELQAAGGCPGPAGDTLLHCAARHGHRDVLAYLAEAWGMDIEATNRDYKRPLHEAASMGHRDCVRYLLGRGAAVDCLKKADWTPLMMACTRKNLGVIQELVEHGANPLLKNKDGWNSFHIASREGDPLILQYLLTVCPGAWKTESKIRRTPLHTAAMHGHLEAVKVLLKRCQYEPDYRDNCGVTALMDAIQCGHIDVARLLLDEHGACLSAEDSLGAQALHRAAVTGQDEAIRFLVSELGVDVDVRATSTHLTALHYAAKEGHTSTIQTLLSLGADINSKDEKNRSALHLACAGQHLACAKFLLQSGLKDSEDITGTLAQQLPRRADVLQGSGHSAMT
# UniProt Q6UVJ0: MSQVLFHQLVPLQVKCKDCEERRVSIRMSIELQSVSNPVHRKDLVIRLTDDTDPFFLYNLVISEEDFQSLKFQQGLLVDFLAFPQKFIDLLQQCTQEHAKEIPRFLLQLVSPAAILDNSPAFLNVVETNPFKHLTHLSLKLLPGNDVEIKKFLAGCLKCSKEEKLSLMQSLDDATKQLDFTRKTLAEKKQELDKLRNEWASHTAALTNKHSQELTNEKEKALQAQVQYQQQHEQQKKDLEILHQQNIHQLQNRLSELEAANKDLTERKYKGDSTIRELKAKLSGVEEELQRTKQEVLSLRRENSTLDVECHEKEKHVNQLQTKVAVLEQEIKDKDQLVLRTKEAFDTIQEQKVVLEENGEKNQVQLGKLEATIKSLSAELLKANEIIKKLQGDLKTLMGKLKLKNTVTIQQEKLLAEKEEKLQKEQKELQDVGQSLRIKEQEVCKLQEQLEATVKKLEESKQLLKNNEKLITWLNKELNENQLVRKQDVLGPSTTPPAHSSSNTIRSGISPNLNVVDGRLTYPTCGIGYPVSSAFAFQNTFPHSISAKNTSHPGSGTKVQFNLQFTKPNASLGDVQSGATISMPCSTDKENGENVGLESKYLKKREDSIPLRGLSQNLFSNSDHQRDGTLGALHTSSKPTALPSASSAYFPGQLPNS
# UniProt Q5VW32: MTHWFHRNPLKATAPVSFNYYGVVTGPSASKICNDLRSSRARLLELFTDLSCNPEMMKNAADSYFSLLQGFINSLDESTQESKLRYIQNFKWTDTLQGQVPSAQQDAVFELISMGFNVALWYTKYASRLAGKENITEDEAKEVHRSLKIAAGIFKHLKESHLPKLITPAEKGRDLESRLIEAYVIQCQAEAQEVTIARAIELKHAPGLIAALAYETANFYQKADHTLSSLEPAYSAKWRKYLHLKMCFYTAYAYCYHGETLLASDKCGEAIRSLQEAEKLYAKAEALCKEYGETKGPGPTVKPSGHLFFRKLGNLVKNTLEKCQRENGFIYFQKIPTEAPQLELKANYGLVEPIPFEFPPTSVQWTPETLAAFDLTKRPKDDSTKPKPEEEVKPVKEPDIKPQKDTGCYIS
# UniProt Q5VUA4: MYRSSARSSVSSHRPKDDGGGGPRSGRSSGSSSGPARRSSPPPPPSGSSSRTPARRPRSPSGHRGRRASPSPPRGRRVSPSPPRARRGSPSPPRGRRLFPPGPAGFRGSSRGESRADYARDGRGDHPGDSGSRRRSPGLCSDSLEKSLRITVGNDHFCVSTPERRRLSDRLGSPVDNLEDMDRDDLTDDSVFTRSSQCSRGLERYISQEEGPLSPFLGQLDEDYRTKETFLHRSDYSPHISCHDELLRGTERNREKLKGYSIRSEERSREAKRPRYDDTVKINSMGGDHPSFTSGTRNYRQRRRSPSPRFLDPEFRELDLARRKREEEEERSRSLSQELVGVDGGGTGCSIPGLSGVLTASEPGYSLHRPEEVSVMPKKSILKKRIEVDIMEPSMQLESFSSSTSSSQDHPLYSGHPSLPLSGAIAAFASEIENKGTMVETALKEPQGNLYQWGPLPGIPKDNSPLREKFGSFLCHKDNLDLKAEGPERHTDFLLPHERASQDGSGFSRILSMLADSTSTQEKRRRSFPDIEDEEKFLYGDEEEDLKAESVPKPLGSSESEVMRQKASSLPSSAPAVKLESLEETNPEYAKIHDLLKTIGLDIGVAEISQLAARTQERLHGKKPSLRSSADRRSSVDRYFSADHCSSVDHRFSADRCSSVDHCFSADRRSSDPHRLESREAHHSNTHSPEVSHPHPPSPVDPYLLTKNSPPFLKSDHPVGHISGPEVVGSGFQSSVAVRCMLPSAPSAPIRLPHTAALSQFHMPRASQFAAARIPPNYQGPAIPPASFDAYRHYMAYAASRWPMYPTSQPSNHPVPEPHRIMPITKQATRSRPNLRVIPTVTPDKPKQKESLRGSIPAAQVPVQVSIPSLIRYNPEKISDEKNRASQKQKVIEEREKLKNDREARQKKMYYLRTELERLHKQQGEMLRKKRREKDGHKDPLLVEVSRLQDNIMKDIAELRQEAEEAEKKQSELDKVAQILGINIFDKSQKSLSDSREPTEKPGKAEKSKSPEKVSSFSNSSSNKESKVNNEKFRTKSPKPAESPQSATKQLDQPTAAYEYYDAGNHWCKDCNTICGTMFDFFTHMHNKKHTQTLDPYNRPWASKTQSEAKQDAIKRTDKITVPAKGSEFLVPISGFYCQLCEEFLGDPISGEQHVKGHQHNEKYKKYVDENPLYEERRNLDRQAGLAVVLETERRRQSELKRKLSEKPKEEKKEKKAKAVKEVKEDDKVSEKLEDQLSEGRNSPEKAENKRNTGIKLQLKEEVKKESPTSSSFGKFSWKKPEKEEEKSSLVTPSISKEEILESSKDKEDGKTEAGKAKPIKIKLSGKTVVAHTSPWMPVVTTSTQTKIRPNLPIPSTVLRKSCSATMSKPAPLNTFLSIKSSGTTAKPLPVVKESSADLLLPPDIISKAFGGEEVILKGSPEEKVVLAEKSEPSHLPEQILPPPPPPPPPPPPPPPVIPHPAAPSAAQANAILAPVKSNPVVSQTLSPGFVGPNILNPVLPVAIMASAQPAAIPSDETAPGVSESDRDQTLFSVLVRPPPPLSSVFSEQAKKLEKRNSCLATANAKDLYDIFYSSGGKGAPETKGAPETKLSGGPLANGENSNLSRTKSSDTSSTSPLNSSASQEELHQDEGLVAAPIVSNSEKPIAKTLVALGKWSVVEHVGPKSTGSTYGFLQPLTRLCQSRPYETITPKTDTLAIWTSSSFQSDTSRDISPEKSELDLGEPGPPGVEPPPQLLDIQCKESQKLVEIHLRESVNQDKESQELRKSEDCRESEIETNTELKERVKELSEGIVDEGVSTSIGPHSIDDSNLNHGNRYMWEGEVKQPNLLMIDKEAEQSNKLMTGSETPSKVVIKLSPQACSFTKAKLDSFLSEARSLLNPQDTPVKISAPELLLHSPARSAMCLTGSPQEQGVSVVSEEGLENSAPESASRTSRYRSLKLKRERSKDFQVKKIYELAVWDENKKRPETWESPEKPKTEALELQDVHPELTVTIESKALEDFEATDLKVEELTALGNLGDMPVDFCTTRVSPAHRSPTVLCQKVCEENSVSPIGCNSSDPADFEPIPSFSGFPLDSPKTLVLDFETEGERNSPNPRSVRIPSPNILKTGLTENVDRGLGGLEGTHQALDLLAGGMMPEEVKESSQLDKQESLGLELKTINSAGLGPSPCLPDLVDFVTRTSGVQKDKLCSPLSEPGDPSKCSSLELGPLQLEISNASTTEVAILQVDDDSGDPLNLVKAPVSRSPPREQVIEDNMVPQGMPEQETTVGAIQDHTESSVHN
# ± gives the standard deviation of the averaged measurements. The entries are a selection whose mix differs from that of the whole data set.
# Compound: Nc1ncnc2c1ncn2[C@@H]1O[C@H](COP(=O)(O)OP(=O)(O)NP(=O)(O)O)[C@@H](O)[C@H]1O [adenylyl imidodiphosphate]
# Assay: NP40-soluble protein abundance relative to vehicle (solubility fold change) (ratio); higher = more soluble protein in presence of AMP-PNP
# Summary of the method: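 Values are fold changes against the detergent-processed vehicle, based on vsn-normalised intensities. Jurkat crude lysate was treated at eight concentrations from 0.1 to 10 mM (10 min at room temperature, then 3 min at 37 °C), solubilised with 0.8% NP40 and benzonase, ultracentrifuged and analysed by TMT-labelled LC-MS/MS over three independent experiments.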
Target,NP40-soluble protein abundance (concentration: 1mM),NP40-soluble protein abundance (concentration: 2mM),NP40-soluble protein abundance (concentration: 4mM),NP40-soluble protein abundance (concentration: 6mM),NP40-soluble protein abundance (concentration: 8mM),NP40-soluble protein abundance (concentration: 10mM)
UniProt Q7L2E3-2,1.02 ± 0.08,1 ± 0.12,1.06 ± 0.096,1.05 ± 0.075,1.1 ± 0.1,1.1 ± 0.13
UniProt Q71RC2 and related entries,1.03 ± 0.034,1.04 ± 0.015,1.06 ± 0.041,1.06 ± 0.061,1.074 ± 0.0034,1.07 ± 0.039
UniProt Q7Z2Z2,1.02 ± 0.0058,0.965 ± 0.041,1.01 ± 0.018,0.992 ± 0.01,0.985 ± 0.012,0.966 ± 0.022
UniProt Q63HQ0,0.981 ± 0.013,1.03 ± 0.038,0.997 ± 0.048,0.974 ± 0.026,0.926 ± 0.018,0.942 ± 0.017
OGFOD2 (UniProt Q6N063),0.975 ± 0.076,0.999 ± 0.023,0.949 ± 0.026,0.959 ± 0.014,0.923 ± 0.028,0.929 ± 0.032
UniProt Q6RI45 and related entries,0.999 ± 0.016,0.9969 ± 0.0018,0.986 ± 0.016,0.9818 ± 0.0045,1 ± 0.043,1 ± 0.022
MICAL3 (UniProt Q7RTP6),0.992 ± 0.031,1.03 ± 0.036,1.01 ± 0.048,0.974 ± 0.026,0.974 ± 0.044,0.98 ± 0.059
ANKRD16 (UniProt Q6P6B7),0.993 ± 0.024,0.97 ± 0.05,0.991 ± 0.03,0.993 ± 0.025,0.983 ± 0.013,0.976 ± 0.043
UniProt Q7Z4G1 and related entries,0.994 ± 0.024,1.04 ± 0.056,1.01 ± 0.039,1.03 ± 0.018,1 ± 0.034,1.01 ± 0.035
PGM2L1 (UniProt Q6PCE3),0.953 ± 0.037,0.931 ± 0.041,0.9821 ± 0.0089,0.989 ± 0.057,1.02 ± 0.012,0.978 ± 0.011
UniProt Q6ZWJ1 and related entries,0.997 ± 0.043,1.03 ± 0.067,0.986 ± 0.028,0.975 ± 0.012,0.9969 ± 0.0047,0.985 ± 0.056
TTC27 (UniProt Q6P3X3),1.01 ± 0.035,1 ± 0.029,1.03 ± 0.032,0.98 ± 0.045,0.975 ± 0.032,0.97 ± 0.04
SASS6 (UniProt Q6UVJ0),1.05 ± 0.011,1.05 ± 0.019,1.01 ± 0.027,1.01 ± 0.027,0.975 ± 0.019,1.01 ± 0.03
UniProt Q6ZVM7 and related entries,0.984 ± 0.027,0.987 ± 0.02,0.979 ± 0.032,0.973 ± 0.021,0.983 ± 0.011,0.973 ± 0.016
MEPCE (UniProt Q7L2J0),1.06 ± 0.039,1.12 ± 0.023,1.1 ± 0.026,1.11 ± 0.04,1.1 ± 0.048,1.18 ± 0.053
HEATR6 (UniProt Q6AI08),0.993 ± 0.037,0.996 ± 0.052,1 ± 0.06,0.974 ± 0.05,0.983 ± 0.049,0.967 ± 0.04
UniProt Q6SJ93 and related entries,0.975 ± 0.024,0.943 ± 0.05,0.961 ± 0.027,0.909 ± 0.019,0.9042 ± 0.0059,0.884 ± 0.023
UniProt Q6P1A2 and related entries,1 ± 0.03,0.987 ± 0.048,0.9794 ± 0.00067,0.9868 ± 0.0093,0.997 ± 0.029,0.997 ± 0.019
UniProt Q6IQ49 and related entries,0.971 ± 0.025,1.01 ± 0.051,0.986 ± 0.025,0.981 ± 0.022,0.967 ± 0.043,0.988 ± 0.052
UniProt Q7Z5L9 and related entries,1.01 ± 0.022,1.04 ± 0.035,1.01 ± 0.028,0.982 ± 0.033,0.978 ± 0.056,0.961 ± 0.047
UniProt Q7L5Y1 and related entries,0.992 ± 0.03,1 ± 0.016,1.007 ± 0.0081,0.99 ± 0.04,1.01 ± 0.013,0.996 ± 0.0075
UniProt Q5VW32 and related entries,1.013 ± 0.0014,0.968 ± 0.028,0.984 ± 0.017,0.98 ± 0.041,1.03 ± 0.052,0.985 ± 0.046
UniProt Q6GMV3,0.9658 ± 0.0019,0.97 ± 0.029,0.907 ± 0.037,0.875 ± 0.042,0.872 ± 0.016,0.819 ± 0.031
UniProt Q7Z2W9 and related entries,1.01 ± 0.055,0.976 ± 0.01,0.982 ± 0.0065,0.9659 ± 0.0065,0.964 ± 0.045,0.957 ± 0.011
ZNF318 (UniProt Q5VUA4),0.979 ± 0.076,1.04 ± 0.028,0.976 ± 0.063,0.967 ± 0.089,0.92 ± 0.072,0.967 ± 0.1

# Looked up above:
# Value of UniProt Q6ZWJ1 and related entries under NP40-soluble protein abundance (concentration: 6mM): 0.975 ± 0.012
# Value of OGFOD2 (UniProt Q6N063) under NP40-soluble protein abundance (concentration: 4mM): 0.949 ± 0.026
